Laboratory results: paper PMC5356551
No constants are given. Whether binding was seen depends on the method and setting. Binding seen in cells or lysates may run through a third protein. Some entries that bind do so weakly or less than the wild type.

By UniProt entry, the sequences of proteins in these tests, tags left out. Where a name states a change or a piece, a line headed by the entry shows the natural chain unless it says otherwise. Residues count along the entry.
UniProt P17931: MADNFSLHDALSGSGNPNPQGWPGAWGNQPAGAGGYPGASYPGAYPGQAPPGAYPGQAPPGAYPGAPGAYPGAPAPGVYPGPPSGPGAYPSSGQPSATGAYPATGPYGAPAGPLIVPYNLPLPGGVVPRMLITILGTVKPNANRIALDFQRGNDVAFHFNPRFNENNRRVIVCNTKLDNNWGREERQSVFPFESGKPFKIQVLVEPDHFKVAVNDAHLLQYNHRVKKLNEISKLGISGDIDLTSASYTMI
Flag-galectin-3 amino acids 111-250 (carbohydrate recognition domain): residues 111-250 of P17931
UniProt P46531: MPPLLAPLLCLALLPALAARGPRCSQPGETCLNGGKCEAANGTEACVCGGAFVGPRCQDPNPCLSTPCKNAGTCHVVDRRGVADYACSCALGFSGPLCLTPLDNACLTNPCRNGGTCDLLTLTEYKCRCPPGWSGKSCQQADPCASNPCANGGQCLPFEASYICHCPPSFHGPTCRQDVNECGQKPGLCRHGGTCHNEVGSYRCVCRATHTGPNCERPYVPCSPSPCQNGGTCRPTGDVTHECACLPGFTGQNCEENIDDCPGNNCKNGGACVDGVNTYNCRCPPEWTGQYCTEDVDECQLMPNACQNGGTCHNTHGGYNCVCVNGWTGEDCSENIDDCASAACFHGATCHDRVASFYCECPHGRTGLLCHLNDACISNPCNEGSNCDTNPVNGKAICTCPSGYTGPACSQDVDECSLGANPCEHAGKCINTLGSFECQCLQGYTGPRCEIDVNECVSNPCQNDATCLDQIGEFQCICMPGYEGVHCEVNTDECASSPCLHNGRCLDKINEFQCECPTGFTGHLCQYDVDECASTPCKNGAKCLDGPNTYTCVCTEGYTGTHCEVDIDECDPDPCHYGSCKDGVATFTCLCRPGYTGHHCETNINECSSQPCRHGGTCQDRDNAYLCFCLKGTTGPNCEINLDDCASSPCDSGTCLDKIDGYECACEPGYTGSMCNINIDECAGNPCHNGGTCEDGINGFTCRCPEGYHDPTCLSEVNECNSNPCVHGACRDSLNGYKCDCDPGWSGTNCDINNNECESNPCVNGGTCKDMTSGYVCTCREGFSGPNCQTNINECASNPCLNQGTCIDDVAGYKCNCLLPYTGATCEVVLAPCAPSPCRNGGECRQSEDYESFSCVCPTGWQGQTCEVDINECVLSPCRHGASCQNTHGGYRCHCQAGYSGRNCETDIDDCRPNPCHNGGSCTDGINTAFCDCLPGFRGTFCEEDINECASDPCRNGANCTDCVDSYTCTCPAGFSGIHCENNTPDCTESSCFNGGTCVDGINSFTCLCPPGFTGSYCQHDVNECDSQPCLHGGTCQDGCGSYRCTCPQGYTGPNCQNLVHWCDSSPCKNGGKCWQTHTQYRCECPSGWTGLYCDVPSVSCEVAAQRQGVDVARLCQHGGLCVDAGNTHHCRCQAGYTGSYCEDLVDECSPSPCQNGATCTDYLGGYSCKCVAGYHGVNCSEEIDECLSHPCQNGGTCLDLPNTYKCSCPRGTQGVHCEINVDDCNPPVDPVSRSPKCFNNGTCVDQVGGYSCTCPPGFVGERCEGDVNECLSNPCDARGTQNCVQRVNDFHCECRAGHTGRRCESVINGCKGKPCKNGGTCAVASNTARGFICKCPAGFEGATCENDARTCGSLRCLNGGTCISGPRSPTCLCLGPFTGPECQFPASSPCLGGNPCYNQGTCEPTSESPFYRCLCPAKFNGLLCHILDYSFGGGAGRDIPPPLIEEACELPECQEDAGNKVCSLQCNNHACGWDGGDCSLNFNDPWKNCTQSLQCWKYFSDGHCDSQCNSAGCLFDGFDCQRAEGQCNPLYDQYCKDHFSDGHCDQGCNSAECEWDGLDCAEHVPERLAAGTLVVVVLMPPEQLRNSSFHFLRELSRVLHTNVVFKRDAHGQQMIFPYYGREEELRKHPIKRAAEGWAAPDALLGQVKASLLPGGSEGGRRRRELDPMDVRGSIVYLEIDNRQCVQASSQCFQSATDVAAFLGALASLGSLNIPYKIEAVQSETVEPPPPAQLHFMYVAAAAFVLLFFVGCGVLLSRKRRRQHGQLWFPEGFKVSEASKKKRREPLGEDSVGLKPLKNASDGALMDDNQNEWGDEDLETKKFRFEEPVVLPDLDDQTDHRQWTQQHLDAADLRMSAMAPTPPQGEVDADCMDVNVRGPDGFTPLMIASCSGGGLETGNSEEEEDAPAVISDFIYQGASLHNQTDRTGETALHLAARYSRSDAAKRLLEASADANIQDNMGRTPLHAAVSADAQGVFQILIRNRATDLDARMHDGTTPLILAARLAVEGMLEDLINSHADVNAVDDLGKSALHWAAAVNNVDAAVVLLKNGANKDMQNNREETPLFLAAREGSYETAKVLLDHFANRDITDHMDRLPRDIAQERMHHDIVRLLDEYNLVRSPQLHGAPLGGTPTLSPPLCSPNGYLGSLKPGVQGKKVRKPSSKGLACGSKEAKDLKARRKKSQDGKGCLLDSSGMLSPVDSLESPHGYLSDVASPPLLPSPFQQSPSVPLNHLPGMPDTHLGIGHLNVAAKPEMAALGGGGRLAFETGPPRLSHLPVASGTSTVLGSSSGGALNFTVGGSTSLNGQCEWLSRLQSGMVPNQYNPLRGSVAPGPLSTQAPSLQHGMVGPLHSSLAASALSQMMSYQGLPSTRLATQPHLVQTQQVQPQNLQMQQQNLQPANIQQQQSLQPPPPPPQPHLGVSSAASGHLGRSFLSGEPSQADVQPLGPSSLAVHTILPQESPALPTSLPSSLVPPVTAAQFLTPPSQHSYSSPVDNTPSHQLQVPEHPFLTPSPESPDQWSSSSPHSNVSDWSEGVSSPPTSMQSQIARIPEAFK
Notch1 (human (endogenous in SKOV3)): residues 19-2555 of P46531

How the values were obtained:
[1] = target: galectin-3 (human (endogenous in SKOV3)) (UniProt P17931); assay: co-IP; endogenous proteins in SKOV3 lysate (RIPA buffer); A/G agarose beads coated with antibodies against galectin-3, Notch1 or activated Notch1 (NICD1); western blot; mouse/rabbit IgG as negative control
[2] = target: Flag-galectin-3 amino acids 111-250 (carbohydrate recognition domain) (UniProt P17931); assay: co-IP; A2780 cells transfected with Flag-galectin-3 domains; lysate precipitated with anti-FLAG on A/G agarose beads; NICD1 detected by western blot
[3] = target: Notch1 (human (endogenous in SKOV3)) (UniProt P46531); assay: co-IP; endogenous proteins in SKOV3 lysate (RIPA buffer); A/G agarose beads coated with antibodies against galectin-3, Notch1 or activated Notch1 (NICD1); western blot; mouse/rabbit IgG as negative control

binding [1]	binding [2]	binding [3]	Substance
binds	–	–	Notch1 (from UniProt P46531 19-2555) (receptor)
binds	binds	–	Notch1 intracellular domain (NICD1) (from UniProt P46531 1754-2555) (domain or fragment)
–	–	binds	galectin-3 (from UniProt P17931 1-250)
